Data as given in PubChem BioAssay AID1259254 (NCATS, 2017)
Test: 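Finding genes that stop cells copying their DNA twice in one cycle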 (primary screen). Cells: human HCT116 colorectal cancer cells. Reagents: single siRNA against human genes. Timing: 3 days. Measured: 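Nuclei stained with Hoechst and imaged; cell-cycle phase assigned by DNA content; G2 share scaled per plate, non-targeting siRNA 0%, GMNN siRNA 100%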. Direction: G2 robust z-score: higher = more G2 cells, more excess DNA replication. Active means: 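Active siRNAs have a G2 robust z of 5 or more median absolute deviations over the median, which in these data means about 38% or higher of GMNN control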.
Shown is one part, drawn at random, of about 59,000 deposited reagents. Of all reagents, about 1,550 (2.6%) were called active. 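G2 share is only a proxy for re-replication; each gene was hit by three separate siRNAs, and active genes were retested.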 A number with no mark means an inactive call. The numbers tell different reagents against one gene apart. Further read-outs or replicates are left out here. The record does not give: the amount of reagent.

| gene symbol | siRNA no. | G2 robust z-score |
| --- | --- | --- |
| FHOD1 | 1 | 2.87 |
| FHOD1 | 2 | -0.791 |
| FHOD1 | 3 | 1.95 |
| NACC1 | 1 | 0.922 |
| NACC1 | 2 | -0.00403 |
| NACC1 | 3 | -1.01 |
| DSG4 | 1 | -0.744 |
| DSG4 | 2 | 0.446 |
| DSG4 | 3 | 0.64 |
| TCF4 | 1 | 0.117 |
| TCF4 | 2 | -1.27 |
| TCF4 | 3 | -1.22 |
| CHAT | 1 | 4.99 |
| CHAT | 2 | 0.806 |
| CHAT | 3 | 4.47 |
| MTERF4 | 1 | -0.302 |
| MTERF4 | 2 | 0.0415 |
| MTERF4 | 3 | -0.125 |
| TPT1P8 | 1 | 1.7 |
| TPT1P8 | 2 | 0.693 |
| TPT1P8 | 3 | -0.698 |
| MDH2 | 1 | -0.69 |
| MDH2 | 2 | -1.38 |
| MDH2 | 3 | 1.02 |
| TMCO6 | 1 | 0.406 |
| TMCO6 | 2 | 0.381 |
| TMCO6 | 3 | 5.35 (active) |
| ZMYM2 | 1 | -0.586 |
| ZMYM2 | 2 | -0.711 |
| ZMYM2 | 3 | -0.228 |
| CAPN2 | 1 | -0.302 |
| CAPN2 | 2 | 0.35 |
| CAPN2 | 3 | 0.0102 |
| SKA2 | 1 | 0.686 |
| SKA2 | 2 | 0.0263 |
| SKA2 | 3 | 0.165 |
| ZNF471 | 1 | 0.284 |
| ZNF471 | 2 | -0.209 |
| ZNF471 | 3 | -0.507 |
| GALR1 | 1 | -1.14 |
| GALR1 | 2 | -0.162 |
| GALR1 | 3 | -0.801 |
| PACS1 | 1 | -1.17 |
| PACS1 | 2 | 0.043 |
| PACS1 | 3 | 0.286 |
| UBA7 | 1 | -0.0905 |
| UBA7 | 2 | -0.0164 |
| UBA7 | 3 | -1.14 |
| MYBPC2 | 1 | 0.161 |
| MYBPC2 | 2 | -0.817 |
| MYBPC2 | 3 | -0.458 |
| BMX | 1 | 0.526 |
| BMX | 2 | -1.12 |
| BMX | 3 | -0.219 |
| PTGER3 | 1 | 0.23 |
| PTGER3 | 2 | -0.748 |
| PTGER3 | 3 | -1.12 |
| LOC728158 | 1 | 0.0902 |
| LOC728158 | 2 | 0.18 |
| LOC728158 | 3 | 0.577 |
| SCG3 | 1 | 0.239 |
| SCG3 | 2 | -0.176 |
| SCG3 | 3 | 0.566 |
| COX6B2 | 1 | -0.283 |
| COX6B2 | 2 | 2.66 |
| COX6B2 | 3 | 1.46 |
| YDJC | 1 | -0.312 |
| YDJC | 2 | -0.466 |
| YDJC | 3 | 1.1 |

A stretch taken from the entries so far, as a working copy:
| gene symbol | siRNA no. | G2 robust z-score |
| --- | --- | --- |
| MTERF4 | 2 | 0.0415 |
| MTERF4 | 3 | -0.125 |
| TPT1P8 | 1 | 1.7 |
| TPT1P8 | 2 | 0.693 |
| TPT1P8 | 3 | -0.698 |
| MDH2 | 1 | -0.69 |
| MDH2 | 2 | -1.38 |
| MDH2 | 3 | 1.02 |
| TMCO6 | 1 | 0.406 |
| TMCO6 | 2 | 0.381 |
